Consider five molecules from paper doi:10.1101/2022.12.30.522300 (bioRxiv, 2022).

Assay [1] addresses T1, GST-RBM17 (human, UniProt Q96I25 1-401).
T1 sequence (looked up): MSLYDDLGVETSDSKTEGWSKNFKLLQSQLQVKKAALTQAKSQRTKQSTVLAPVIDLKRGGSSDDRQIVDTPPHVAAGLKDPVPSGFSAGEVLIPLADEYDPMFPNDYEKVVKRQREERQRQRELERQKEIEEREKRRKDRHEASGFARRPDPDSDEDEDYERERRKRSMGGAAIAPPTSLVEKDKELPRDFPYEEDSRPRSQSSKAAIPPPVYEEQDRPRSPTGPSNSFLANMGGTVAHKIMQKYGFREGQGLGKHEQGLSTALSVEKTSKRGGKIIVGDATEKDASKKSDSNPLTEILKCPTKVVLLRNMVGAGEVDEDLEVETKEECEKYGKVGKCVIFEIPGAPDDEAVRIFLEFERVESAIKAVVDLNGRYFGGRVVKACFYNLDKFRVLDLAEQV
In words: pull-down.

Assay [2] deals with T2, full-length SAP30BP, from pETM11 (human) (UniProt Q9UHR5).
T2 sequence: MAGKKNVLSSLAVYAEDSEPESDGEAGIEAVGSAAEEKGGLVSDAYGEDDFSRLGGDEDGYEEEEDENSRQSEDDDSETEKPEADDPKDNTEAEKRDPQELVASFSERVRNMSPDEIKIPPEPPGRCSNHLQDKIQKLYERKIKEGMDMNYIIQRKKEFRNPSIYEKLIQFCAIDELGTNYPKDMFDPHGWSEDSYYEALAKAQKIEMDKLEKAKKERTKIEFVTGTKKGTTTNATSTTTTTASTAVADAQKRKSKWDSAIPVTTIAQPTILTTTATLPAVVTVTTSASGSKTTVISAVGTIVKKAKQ
In words: NMR titration.

The target in assay [3] is full-length SAP30BP with mutation in the ULM, from pETM11 (human) (UniProt Q9UHR5). In words: NMR titration.

These are yes or no findings as the source states them, for the method shown. A result given as binding can be weak or reduced; the word gives no strength. For some assays here: Tags and fused reporters may be left off the sequences shown.

For “SAP30BP/ΔNΔC (GST tag removed) (human) (domain or fragment)”, the binding entry in assay [1] is listed as “no binding”.

For the molecule “SAP30BP/ΔN (GST tag removed) (human) (domain or fragment)”, the binding entry in assay [1] was “binds”. Regarding “RBM17–UHM (RBM17/ΔNΔG), from pETM11 (human) (domain or fragment)”, the binding result in assay [2] was “binds”. Take “SAP30BP/ΔC (GST tag removed) (human) (domain or fragment)”: the binding result in assay [1] was “no binding”.

B1: full-length RBM17, from pETM11 (protein, UniProt Q96I25 1-401)
chain: MSLYDDLGVETSDSKTEGWSKNFKLLQSQLQVKKAALTQAKSQRTKQSTVLAPVIDLKRGGSSDDRQIVDTPPHVAAGLKDPVPSGFSAGEVLIPLADEYDPMFPNDYEKVVKRQREERQRQRELERQKEIEEREKRRKDRHEASGFARRPDPDSDEDEDYERERRKRSMGGAAIAPPTSLVEKDKELPRDFPYEEDSRPRSQSSKAAIPPPVYEEQDRPRSPTGPSNSFLANMGGTVAHKIMQKYGFREGQGLGKHEQGLSTALSVEKTSKRGGKIIVGDATEKDASKKSDSNPLTEILKCPTKVVLLRNMVGAGEVDEDLEVETKEECEKYGKVGKCVIFEIPGAPDDEAVRIFLEFERVESAIKAVVDLNGRYFGGRVVKACFYNLDKFRVLDLAEQV
For B1, the binding entry in assay [3] was “binds”.
